# Measurements: PubChem BioAssay AID1671190 (National Center for Advancing Translational Sciences (NCATS), 2021)
# Amino acid sequences for entries named in this document (tags omitted).
# UniProt P18054, whole entry, looked up: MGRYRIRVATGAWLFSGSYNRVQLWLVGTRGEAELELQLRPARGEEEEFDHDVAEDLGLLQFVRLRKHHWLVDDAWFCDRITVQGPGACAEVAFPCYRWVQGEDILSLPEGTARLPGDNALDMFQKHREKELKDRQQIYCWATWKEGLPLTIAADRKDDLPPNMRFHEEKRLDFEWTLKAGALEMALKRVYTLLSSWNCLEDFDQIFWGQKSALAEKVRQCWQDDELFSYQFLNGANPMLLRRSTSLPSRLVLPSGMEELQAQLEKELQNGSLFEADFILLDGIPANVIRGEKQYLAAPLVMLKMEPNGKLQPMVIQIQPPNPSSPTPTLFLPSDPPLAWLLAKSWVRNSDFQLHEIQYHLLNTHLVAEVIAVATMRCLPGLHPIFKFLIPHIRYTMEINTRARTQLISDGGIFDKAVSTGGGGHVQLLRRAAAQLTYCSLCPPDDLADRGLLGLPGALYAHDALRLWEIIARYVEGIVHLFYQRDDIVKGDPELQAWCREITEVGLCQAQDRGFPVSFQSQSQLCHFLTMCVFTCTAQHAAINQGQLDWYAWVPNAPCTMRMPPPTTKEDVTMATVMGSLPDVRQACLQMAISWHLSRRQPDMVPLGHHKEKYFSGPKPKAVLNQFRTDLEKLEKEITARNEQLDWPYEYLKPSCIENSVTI
# Values joined by “and” are separate entries in the source; they are usually repeats but may differ in a detail not shown here. Equal values may be shown once. The campaign covered roughly 580,000 compounds. About 6,100 (1.1%) were called active. Inconclusive results, whose numbers are uncertain, are shown with a selection of clear calls. Calls come from the whole dose curve; as a rule, active = well fitted inhibition curve with a large enough effect; inconclusive = small, poorly fitted or top-dose-only effect, or another doubt; inactive = no such curve, though single readings can be large or run the other way. A potency beside an inconclusive call is a rough fit, not a confirmed value.
# Target: Polyunsaturated fatty acid lipoxygenase ALOX12 (Homo sapiens) (UniProt P18054)
# Experiment: Primary qHTS assay for inhibitors of human arachidonate 12S-lipoxygenase (ALOX12): Round 2
# Conditions: purified 12hLO, xylenol orange hydroperoxide absorbance; activity change, negative = inhibition: at 108 µM (top of the series) unless noted
# In short: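 Purified human 12hLO at 150 nM in 25 mM Hepes, 0.01% Triton X-100, pH 7.0, preincubated 15 min at room temperature with compound. Reaction started with 40 uM arachidonic acid, 30 min at room temperature. Hydroperoxide measured by Fe-xylenol orange, 573/405 nm absorbance ratio.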
# % is set by controls: 0 for no effect and ±100 for the full control effect; potency is the fitted concentration of half-maximal effect.
SMILES,"activity change, negative = inhibition",Potency
O=C(c1ccc(Cl)cc1)N1CC2(CCN(C3CCCCC3)CC2)Cc2ccccc21,inactive: -2.09% [at 6.33 µM],–
CC(C)n1cnc2cc(NCc3ccccc3O)ccc21,–,inactive
O=C(CSc1ccccc1)OCc1cc(=O)n2nc(C3CC3)sc2n1,–,inactive
COc1ccc2c(c1)c(C(C(=O)O)N1CCN(CCC#N)CC1)cn2CC(=O)O (configuration not stated),–,"inconclusive: 50.1 µM [inhibitor, single point]"
Cc1ccc(S(=O)(=O)CCC(=O)NC2CCCC2)cc1,–,inactive
COCCNc1nc(-c2ccc(C(=O)N(C)C)cc2)nc2ccccc12,–,"inconclusive: 8.91 µM [inhibitor, full curve, poor fit]"
COC(=O)[C@@]12C[C@@H](CC(=O)NCc3ccc(OC)c(OC)c3)C(=O)N(Cc3ccco3)C1=CCC(C)(C)C2,–,inactive
Cc1ccc(S(=O)(=O)Nc2ccc(-n3c(C)nc4ccccc4c3=O)cc2)cc1,–,"inconclusive: 56.2 µM [inhibitor, partial curve, poor fit]"
COc1cccc(OC)c1OCCCCN1CCC(Cc2ccccc2)CC1,–,"inconclusive: 4.47 µM [inhibitor, full curve]"
CC(=O)Nc1cccc(-c2nccc3c(=O)cc(-c4ccncc4)oc23)c1,–,"inconclusive: 44.7 µM [inhibitor, partial curve]"
COc1cc(C(=O)NC(=S)N2CCN(C)CC2)cc(OC)c1OC,–,inactive
Cc1cccn2c(=O)c3cc(C(=O)NCC4CCCO4)c(=N)n(CCc4ccccc4)c3nc12 (configuration not stated),–,"inconclusive: 39.8 µM [inhibitor, partial curve, poor fit]"
COc1ccc(-c2[nH]nc3ncc(-c4ccc(OC)nc4)nc23)c(C)c1,–,"inconclusive: 126 µM [inhibitor, partial curve, poor fit]"
COCCn1c(-c2ccccc2F)n[nH]c1=S,–,"inconclusive: 50.1 µM [inhibitor, single point]"
CC1=C(C(=O)Nc2ccccc2C(=O)NCc2ccccc2)SCCO1,–,inactive
CCCCCN(CCC(=O)NCc1ccc2c(c1)OCO2)C(=O)c1cc(C)oc1C,–,"inconclusive: 14.1 µM [inhibitor, full curve, poor fit]"
Cc1c(O)ccc2c(CSc3nnc(N4CCCC4)s3)cc(=O)oc12,–,inactive
C=CCSc1nc2c(c(=O)[nH]c(=O)n2C)n1Cc1ccccc1,–,"inconclusive: 100 µM [inhibitor, partial curve, poor fit]"
Cc1ccc(Cl)cc1N1CCN(S(=O)(=O)c2ccc3[nH]c4c(c3c2)CCCCC4)CC1,–,inactive
Cc1c(C(=O)N2CCCCC2C)sc2ncnc(N3CCc4ccccc4C3)c12 (configuration not stated),–,inactive
COC(=O)c1ccc2nc(-c3ccco3)c(Cc3ccccc3OC)n2c1,–,"inconclusive: 89.1 µM [inhibitor, partial curve, poor fit]"
Cc1ccc(S(=O)(=O)NCCN2CCOCC2)c(C)c1C,–,"inconclusive: 100 µM [inhibitor, single point]"
Cc1cccn2cc(-c3ccc(F)cc3)nc12,–,inactive

# Looked up above.
# `O=C(c1ccc(Cl)cc1)N1CC2(CCN(C3CCCCC3)CC2)Cc2ccccc21` – activity change, negative = inhibition: inactive: -2.09% [at 6.33 µM]
# `COc1ccc(-c2[nH]nc3ncc(-c4ccc(OC)nc4)nc23)c(C)c1` – Potency: inconclusive: 126 µM [inhibitor, partial curve, poor fit]
# `Cc1c(C(=O)N2CCCCC2C)sc2ncnc(N3CCc4ccccc4C3)c12` (configuration not stated) – Potency: inactive
# `COc1cccc(OC)c1OCCCCN1CCC(Cc2ccccc2)CC1` – Potency: inconclusive: 4.47 µM [inhibitor, full curve]

# Additional compounds follow.

SMILES,"activity change, negative = inhibition",Potency
CCn1c(SCC(=O)NC2CCCc3ccccc32)nnc1C1CC1 (configuration not stated),–,inactive
CCCCS(=O)(=O)/C=C/C1C2C=CC(C2)C1S(=O)(=O)CCCC (configuration not stated),–,"inconclusive: 50.1 µM [inhibitor, partial curve, poor fit]"
Cc1cc(N2CCN(c3ccccc3)CC2)n2nc(-c3ccccc3)nc2n1,–,"inconclusive: 3.98 µM [inhibitor, full curve, poor fit]"
CC(C)N1CCOC1c1ccccc1 (configuration not stated),–,inactive
Cc1cccc(CSc2ncc(CO)n2Cc2ccc(F)cc2)c1,–,"inconclusive: 112 µM [inhibitor, partial curve, poor fit]"
Fc1ccc(Br)cc1CNc1ccccc1,–,"inconclusive: 3.98 µM [inhibitor, full curve, poor fit]"
Cc1ccc(-c2csc3nc4cc(C(=O)NC5CCC(O)CC5)ccc4c(=O)n23)cc1 (configuration not stated),–,active: 11.2 µM
COc1ccc2[nH]c(C)c(CCNc3ccc(C(F)(F)F)cc3[N+](=O)[O-])c2c1,–,inactive
COc1ccc(-c2nn(-c3ccccc3)cc2CN(C)CCn2ccnc2C)c(F)c1,–,inactive
Cc1cccc(C(=O)N=c2c(C#N)cc3c(=O)n4cccc(C)c4nc3n2Cc2ccco2)c1,–,"inconclusive: 100 µM [inhibitor, partial curve, poor fit]"
Cn1cnc(S(=O)(=O)NCCc2noc(-c3ccccc3)n2)c1,–,"inconclusive: 1.26 µM [inhibitor, full curve, poor fit]"
COc1cccc(NC(=O)Cn2c3ccc(F)cc3c3nc4n(c(=O)c32)CCS4)c1,inconclusive: -30.7% [inhibitor],–
C[C@@H]1CCCCO[C@H](CN(C)Cc2ccccc2)[C@@H](C)CN([C@H](C)CO)C(=O)c2cc(NS(=O)(=O)c3ccc(Cl)cc3)ccc2O1,–,"inconclusive: 28.2 µM [inhibitor, partial curve]"
CC(=O)Nc1ccc(S(=O)(=O)c2cc(O)ccc2O)cc1,–,"inconclusive: 35.5 µM [inhibitor, single point]"
CC(OC(=O)c1cc(Br)ccc1O)C(=O)NC1(C#N)CCCCC1 (configuration not stated),–,"inconclusive: 50.1 µM [inhibitor, partial curve, poor fit]"
CC(C)Cc1nnc(NC(=O)c2cc(=O)c3ccccc3o2)s1,–,"inconclusive: 126 µM [inhibitor, single point]"
COc1ccccc1-c1cnc(C(O)c2c(C)cc(C)cc2C)[nH]1 (configuration not stated),–,"inconclusive: 44.7 µM [inhibitor, single point]"
CCc1cccc(NC(=O)N2CCCC2c2nncn2C2CCCC2)c1 (configuration not stated),–,"inconclusive: 17.8 µM [inhibitor, full curve, poor fit]"
C=CCc1ccccc1OCCCCN1CCCC1,–,"inconclusive: 0.631 µM [inhibitor, full curve, poor fit]"
Cc1cc(NS(=O)(=O)c2ccc(NC(=O)/C=C/c3ccccc3)cc2)nc(C)n1,–,inactive
COc1ccc(NC(=S)NCc2ccc3c(c2)cc(C)n3C)cc1,–,"inconclusive: 39.8 µM [inhibitor, single point]"
COC(=O)Nc1ccc(S(=O)(=O)N2CCCCC2)cc1,–,inactive
C#CCN(CC=C)C(=O)c1ccccc1OC1CCN(C(=O)c2cccnc2)CC1,–,inactive

SMILES,"activity change, negative = inhibition",Potency
CC(/C=C/c1ccccc1)=N/NC(=O)c1cccc(Br)c1,–,inactive
CO[C@@H]1CN(C)C(=O)c2cc(NS(=O)(=O)c3ccc(C)cc3)ccc2OC[C@H](C)N(Cc2nccs2)C[C@H]1C,–,"inconclusive: 89.1 µM [inhibitor, single point]"
O=C(c1ccccc1F)N1CCN(Cc2ccc3c(c2)OCO3)CC1,–,"inconclusive: 0.282 µM [inhibitor, full curve, poor fit]"
C[C@H](CO)N1C[C@H](C)[C@@H](CN(C)C(=O)Nc2ccc(C(F)(F)F)cc2)Oc2ccc(NC(=O)C3CCCCC3)cc2C1=O,–,inactive
CN1CCN(C(=O)[C@@H]2CCC[C@@H](NC3CCOCC3)CN(C)C(=O)C2)CC1,–,inactive
CC(C)(Oc1ccc(Cl)cc1)C(=O)N1CCN(c2nccs2)CC1,–,inactive
CNCCCCOc1ccc(Cc2ccccc2)cc1,–,"inconclusive: 0.562 µM [inhibitor, full curve, poor fit]"
COCCN1C(=O)CC[C@]2(C(=O)NC3CCCCC3)CCCC[C@@H]12,–,"inconclusive: 3.16 µM [inhibitor, full curve, poor fit]"
COc1ccc(C(=O)OCC(=O)NC(C)CCc2ccccc2)cc1 (configuration not stated),–,inactive
COc1ccc(C(=O)OCCN2CCN(C3CN(Cc4cn(Cc5ccccc5C(F)(F)F)nn4)S(=O)(=O)C3)CC2)cc1OC (configuration not stated),–,"inconclusive: 35.5 µM [inhibitor, partial curve, poor fit]"
CNC(=O)[C@@H]1C[C@H](Oc2cccnc2)CN1C(=O)c1ccc(OC)cc1OC,–,"inconclusive: 28.2 µM [inhibitor, full curve]"
Cc1cccc(N2C(=O)CSC23C(=O)N(Cc2cccc(F)c2)c2ccccc23)c1 (configuration not stated),–,"inconclusive: 100 µM [inhibitor, partial curve, poor fit]"
CCCCNC(=O)N(C)c1nc2ccccc2s1,–,"inconclusive: 39.8 µM [inhibitor, partial curve, poor fit]"
Cc1cc(C(=O)Nc2ccc(C)c(I)c2)c(C)o1,–,"inconclusive: 44.7 µM [inhibitor, partial curve, poor fit]"
Cc1nc(C)c(-c2csc(Nc3ccc(F)cc3)n2)s1,–,"inconclusive: 50.1 µM [inhibitor, partial curve, poor fit] and inconclusive: 44.7 µM [inhibitor, partial curve, poor fit]"
C/C(=N\NC(=O)c1ccccc1)c1ccccc1,–,inactive
S=c1[nH]nc(-c2c[nH]c3ccccc23)o1,–,"inconclusive: 28.2 µM [inhibitor, partial curve, poor fit]"
Cc1ccc(-c2n[nH]c(=S)c3ccccc23)cc1S(=O)(=O)NCC1CCCO1 (configuration not stated),–,"inconclusive: 50.1 µM [inhibitor, partial curve, poor fit]"
O=C(Cc1n[nH]c(=O)c2ccccc12)NC1CCCc2c1[nH]c1c(Cl)cccc21 (configuration not stated),–,"inconclusive: 50.1 µM [inhibitor, partial curve]"
O=C(CN1CCN(c2ccccc2O)CC1)N1N=C(c2cc3ccccc3o2)CC1c1ccco1 (configuration not stated),–,"inconclusive: 5.01 µM [inhibitor, partial curve, poor fit]"
C=CCn1c(CNS(=O)(=O)c2ccc(Br)cc2)n[nH]c1=S,–,"inconclusive: 89.1 µM [inhibitor, single point]"
